{"sequences": {"note": "Protein sequences, listed by entry. Tags and fused reporters are not part of them. Residues count along the entry.", "UniProt P05106, 27-788": "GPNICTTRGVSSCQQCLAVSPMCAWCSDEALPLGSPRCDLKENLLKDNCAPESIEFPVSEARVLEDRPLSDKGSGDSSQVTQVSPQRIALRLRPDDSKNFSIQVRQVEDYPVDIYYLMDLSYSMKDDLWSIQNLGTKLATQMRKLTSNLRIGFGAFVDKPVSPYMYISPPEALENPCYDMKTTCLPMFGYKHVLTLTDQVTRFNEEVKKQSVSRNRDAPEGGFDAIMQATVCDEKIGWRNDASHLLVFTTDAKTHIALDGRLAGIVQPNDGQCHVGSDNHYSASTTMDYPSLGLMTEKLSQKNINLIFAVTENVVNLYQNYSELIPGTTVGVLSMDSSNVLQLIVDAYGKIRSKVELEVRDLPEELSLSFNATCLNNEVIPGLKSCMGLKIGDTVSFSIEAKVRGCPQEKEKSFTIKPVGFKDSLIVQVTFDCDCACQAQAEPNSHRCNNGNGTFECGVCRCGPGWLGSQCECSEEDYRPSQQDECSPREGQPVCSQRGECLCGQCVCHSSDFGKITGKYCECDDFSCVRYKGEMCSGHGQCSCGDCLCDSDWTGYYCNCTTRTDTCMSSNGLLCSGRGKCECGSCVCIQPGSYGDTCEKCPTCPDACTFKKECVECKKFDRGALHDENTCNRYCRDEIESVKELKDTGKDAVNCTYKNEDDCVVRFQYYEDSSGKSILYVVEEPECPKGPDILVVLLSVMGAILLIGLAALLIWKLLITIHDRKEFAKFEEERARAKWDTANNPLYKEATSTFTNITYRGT", "UniProt P06756, 891-1048 partner limits assumed": "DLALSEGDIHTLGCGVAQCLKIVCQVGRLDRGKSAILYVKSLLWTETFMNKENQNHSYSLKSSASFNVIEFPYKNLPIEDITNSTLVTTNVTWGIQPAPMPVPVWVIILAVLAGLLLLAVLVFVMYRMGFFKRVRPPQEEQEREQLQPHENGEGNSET", "UniProt P06756, 31-889 limits assumed": "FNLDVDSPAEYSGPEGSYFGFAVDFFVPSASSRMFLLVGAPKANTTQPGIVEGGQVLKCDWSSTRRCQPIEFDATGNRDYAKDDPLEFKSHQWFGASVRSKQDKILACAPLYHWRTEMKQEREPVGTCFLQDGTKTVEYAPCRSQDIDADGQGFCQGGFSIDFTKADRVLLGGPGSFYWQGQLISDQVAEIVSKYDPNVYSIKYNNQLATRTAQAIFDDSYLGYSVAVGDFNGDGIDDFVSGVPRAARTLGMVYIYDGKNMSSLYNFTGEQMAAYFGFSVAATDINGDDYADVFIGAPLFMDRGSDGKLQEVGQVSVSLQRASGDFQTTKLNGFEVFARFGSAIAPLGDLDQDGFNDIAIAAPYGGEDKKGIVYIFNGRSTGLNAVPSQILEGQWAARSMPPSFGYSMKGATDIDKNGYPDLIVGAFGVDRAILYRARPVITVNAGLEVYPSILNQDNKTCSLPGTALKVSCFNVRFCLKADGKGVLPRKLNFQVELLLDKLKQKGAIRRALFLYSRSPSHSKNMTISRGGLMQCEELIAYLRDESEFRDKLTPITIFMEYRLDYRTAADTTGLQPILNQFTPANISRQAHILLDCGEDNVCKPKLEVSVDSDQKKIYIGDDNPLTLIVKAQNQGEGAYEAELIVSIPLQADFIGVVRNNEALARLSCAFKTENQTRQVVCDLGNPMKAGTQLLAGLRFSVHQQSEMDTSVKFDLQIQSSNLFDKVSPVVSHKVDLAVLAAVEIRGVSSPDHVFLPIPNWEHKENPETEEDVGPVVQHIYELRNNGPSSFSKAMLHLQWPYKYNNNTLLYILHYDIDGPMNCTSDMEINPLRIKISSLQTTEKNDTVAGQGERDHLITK"}, "source": "patent US7928113B2", "about": "“Integrin-binding small molecules” (University of Southern California, priority 2005, dated 2011)", "origin": "cited, not measured here", "note": "Some of these results come from one statement about several compounds together. Some ranges recur; such a range may be that of the whole group of compounds."}
{"target": "αvβ3 integrin (Homo sapiens, UniProt P05106+P06756)", "conditions": "training set compounds, literature values; cited from earlier work", "units": {"binding affinities to αvβ3 integrin (reported, ref. 39)": "nM"}}
{"smiles": "CNc1cccc(CCOc2ccc3c(ccn3CCC(=O)O)c2)n1", "note": "[A]", "binding affinities to αvβ3 integrin (reported, ref. 39)": "30 to 49"}
{"smiles": "CNc1cccc(CCOc2ccc3c(CCC(=O)O)coc3c2)n1", "note": "[C]", "binding affinities to αvβ3 integrin (reported, ref. 39)": "30 to 49"}
{"smiles": "CNc1cccc(CCOc2ccc3c(CCC(=O)O)csc3c2)n1", "note": "[B]", "binding affinities to αvβ3 integrin (reported, ref. 39)": "30 to 49"}
